We go through 35 targets from the supplement of paper PMC10849652.

Protein sequences, listed by entry. Tags and fused reporters are not part of them. Lines headed by an entry give the natural chain unless they say otherwise; changes in a name come on top.
UniProt O00303, whole entry, looked up: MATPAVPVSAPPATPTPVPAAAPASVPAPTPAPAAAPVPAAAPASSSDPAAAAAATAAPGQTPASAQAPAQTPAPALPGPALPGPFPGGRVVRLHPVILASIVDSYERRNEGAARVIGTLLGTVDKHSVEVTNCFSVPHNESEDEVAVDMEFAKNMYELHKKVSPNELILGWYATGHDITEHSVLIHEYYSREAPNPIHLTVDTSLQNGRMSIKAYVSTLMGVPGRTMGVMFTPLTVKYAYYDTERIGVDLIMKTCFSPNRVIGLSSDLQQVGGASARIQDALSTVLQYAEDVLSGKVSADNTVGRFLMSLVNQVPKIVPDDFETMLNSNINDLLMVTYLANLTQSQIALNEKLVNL
UniProt Q5UCC4: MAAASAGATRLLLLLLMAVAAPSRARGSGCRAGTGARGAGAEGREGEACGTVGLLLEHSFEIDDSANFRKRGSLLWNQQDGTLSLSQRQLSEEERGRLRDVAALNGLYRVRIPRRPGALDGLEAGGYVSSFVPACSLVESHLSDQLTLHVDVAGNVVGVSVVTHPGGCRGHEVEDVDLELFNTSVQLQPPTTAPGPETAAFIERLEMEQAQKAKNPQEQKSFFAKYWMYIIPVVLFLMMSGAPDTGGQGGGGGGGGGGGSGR
UniProt O15371, whole entry, looked up: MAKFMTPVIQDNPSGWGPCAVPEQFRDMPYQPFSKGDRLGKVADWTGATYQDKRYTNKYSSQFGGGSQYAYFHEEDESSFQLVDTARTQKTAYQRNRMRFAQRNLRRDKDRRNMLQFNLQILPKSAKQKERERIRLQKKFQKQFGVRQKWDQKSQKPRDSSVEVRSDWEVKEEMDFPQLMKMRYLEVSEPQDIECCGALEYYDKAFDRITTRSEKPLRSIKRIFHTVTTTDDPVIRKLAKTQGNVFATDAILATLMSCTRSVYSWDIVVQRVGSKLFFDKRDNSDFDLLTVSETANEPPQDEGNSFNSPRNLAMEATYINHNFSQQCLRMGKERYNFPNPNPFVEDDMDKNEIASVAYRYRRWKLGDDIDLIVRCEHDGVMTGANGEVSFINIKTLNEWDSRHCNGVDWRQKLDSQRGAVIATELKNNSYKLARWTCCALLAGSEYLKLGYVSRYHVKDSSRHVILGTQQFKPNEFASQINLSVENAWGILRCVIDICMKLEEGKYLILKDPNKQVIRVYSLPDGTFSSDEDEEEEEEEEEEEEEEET
UniProt Q8NFI3: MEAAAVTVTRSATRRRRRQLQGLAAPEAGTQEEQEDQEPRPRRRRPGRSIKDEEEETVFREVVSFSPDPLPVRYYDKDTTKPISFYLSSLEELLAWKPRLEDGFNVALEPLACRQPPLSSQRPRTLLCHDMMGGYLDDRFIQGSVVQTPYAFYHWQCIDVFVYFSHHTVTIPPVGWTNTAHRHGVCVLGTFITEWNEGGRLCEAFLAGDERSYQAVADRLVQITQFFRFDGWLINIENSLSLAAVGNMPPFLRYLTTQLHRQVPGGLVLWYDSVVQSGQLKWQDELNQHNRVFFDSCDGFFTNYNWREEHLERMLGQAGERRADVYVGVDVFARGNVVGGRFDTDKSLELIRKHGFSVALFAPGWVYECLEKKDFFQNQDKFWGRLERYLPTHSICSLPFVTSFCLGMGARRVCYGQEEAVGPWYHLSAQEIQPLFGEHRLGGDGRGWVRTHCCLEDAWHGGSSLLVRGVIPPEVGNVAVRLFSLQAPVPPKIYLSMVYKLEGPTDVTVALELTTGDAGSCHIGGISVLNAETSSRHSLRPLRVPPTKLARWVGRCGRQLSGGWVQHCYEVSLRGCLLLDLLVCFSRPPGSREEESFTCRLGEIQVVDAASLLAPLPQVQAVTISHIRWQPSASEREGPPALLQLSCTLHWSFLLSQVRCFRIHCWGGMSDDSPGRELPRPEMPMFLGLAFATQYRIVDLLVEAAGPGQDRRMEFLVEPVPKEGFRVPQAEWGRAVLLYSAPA
UniProt Q9UBC2: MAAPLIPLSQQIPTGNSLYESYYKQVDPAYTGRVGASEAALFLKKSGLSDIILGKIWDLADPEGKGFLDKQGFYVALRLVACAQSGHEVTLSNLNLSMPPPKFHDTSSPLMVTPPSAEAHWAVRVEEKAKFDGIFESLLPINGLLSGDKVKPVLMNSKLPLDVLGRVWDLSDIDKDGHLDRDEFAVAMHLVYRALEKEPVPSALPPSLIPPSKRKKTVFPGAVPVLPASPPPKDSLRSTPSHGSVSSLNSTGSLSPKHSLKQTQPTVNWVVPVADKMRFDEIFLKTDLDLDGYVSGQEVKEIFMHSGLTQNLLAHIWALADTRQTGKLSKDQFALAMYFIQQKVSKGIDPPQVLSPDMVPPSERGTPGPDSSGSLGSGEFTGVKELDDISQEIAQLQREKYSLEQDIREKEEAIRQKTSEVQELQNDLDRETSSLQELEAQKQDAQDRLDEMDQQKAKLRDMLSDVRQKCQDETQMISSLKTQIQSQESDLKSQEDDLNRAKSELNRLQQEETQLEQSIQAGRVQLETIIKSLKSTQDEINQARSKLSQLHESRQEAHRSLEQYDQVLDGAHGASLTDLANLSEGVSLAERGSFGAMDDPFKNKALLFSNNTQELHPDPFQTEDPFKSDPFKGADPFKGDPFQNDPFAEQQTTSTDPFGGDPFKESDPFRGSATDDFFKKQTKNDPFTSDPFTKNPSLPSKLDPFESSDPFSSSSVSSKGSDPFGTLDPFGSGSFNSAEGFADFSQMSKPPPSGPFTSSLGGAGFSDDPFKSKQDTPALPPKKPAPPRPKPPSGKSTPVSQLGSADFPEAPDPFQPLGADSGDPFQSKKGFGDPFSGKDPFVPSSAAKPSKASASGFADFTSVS
UniProt O75356: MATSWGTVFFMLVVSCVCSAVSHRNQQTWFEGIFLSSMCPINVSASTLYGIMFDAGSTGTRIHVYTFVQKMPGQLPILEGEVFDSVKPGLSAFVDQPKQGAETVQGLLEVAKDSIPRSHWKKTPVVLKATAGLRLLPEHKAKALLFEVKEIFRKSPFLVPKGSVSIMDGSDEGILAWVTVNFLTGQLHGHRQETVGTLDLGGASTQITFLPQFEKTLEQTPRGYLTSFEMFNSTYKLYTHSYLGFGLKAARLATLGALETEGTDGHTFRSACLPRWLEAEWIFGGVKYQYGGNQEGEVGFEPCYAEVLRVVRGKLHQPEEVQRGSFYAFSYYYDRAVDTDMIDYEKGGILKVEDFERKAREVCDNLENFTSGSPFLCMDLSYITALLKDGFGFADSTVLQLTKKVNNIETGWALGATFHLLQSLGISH
UniProt Q0PNE2: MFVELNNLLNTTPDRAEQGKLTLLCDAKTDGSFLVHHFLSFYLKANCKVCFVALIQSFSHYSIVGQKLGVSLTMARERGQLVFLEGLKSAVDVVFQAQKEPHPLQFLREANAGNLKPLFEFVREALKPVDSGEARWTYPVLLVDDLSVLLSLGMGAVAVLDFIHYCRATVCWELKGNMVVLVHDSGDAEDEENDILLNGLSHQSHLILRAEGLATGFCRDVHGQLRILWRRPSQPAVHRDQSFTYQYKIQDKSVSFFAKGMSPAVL
UniProt Q13144, whole entry, looked up: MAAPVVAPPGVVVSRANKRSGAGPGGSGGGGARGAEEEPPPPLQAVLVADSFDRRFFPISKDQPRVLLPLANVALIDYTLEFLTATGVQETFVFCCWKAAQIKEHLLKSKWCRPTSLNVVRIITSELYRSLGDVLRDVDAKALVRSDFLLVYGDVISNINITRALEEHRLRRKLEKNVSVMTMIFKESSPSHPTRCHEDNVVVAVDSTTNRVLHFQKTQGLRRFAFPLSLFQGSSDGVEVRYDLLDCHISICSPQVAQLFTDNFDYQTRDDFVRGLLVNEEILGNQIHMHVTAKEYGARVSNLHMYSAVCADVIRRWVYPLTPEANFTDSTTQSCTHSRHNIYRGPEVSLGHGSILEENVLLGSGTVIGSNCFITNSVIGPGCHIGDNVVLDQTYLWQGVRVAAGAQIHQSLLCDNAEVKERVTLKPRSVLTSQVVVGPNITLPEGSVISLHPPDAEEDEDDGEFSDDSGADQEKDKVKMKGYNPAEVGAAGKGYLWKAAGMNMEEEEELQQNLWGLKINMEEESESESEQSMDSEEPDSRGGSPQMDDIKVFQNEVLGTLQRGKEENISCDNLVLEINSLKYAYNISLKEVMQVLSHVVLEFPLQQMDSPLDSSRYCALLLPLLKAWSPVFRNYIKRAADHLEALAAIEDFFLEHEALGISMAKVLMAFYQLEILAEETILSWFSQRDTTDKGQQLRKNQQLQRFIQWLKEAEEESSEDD
UniProt Q15369, whole entry, looked up: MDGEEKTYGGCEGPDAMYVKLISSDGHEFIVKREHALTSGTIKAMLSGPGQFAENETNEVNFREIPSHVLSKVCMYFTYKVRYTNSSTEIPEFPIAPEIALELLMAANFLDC
UniProt Q32P44: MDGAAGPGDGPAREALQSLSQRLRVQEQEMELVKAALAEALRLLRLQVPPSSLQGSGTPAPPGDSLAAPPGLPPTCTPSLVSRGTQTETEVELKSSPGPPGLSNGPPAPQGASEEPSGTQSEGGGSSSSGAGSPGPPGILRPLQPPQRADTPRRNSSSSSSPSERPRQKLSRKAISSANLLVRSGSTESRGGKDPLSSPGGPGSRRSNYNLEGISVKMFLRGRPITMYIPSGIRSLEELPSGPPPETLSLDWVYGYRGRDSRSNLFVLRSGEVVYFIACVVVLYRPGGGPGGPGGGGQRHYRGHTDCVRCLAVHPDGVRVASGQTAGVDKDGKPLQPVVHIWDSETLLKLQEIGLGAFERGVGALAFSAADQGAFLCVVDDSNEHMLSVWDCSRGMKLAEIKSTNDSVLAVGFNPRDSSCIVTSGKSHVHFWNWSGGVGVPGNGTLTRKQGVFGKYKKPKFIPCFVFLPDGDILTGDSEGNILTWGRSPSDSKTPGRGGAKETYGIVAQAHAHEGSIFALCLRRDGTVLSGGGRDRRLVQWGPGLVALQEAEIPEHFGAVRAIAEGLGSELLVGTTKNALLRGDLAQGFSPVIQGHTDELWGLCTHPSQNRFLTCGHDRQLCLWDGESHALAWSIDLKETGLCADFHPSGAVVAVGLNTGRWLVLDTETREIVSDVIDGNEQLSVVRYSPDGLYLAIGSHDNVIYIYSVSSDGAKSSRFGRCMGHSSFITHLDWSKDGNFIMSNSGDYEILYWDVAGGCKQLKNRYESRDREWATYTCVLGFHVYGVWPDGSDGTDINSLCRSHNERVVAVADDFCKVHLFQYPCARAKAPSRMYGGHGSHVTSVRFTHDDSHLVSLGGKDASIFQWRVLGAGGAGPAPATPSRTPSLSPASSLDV
UniProt P54852: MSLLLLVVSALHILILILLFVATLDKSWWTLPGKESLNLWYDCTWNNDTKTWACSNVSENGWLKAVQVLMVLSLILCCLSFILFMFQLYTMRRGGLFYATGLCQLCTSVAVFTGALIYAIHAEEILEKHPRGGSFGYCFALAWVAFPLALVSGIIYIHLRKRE
UniProt Q5J8M3, whole entry, looked up: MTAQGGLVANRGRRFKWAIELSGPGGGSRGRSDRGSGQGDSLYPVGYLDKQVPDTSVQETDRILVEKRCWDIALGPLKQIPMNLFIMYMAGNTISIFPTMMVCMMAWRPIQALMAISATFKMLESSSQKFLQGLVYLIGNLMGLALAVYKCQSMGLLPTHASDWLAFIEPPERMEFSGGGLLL
UniProt P38919, whole entry, looked up: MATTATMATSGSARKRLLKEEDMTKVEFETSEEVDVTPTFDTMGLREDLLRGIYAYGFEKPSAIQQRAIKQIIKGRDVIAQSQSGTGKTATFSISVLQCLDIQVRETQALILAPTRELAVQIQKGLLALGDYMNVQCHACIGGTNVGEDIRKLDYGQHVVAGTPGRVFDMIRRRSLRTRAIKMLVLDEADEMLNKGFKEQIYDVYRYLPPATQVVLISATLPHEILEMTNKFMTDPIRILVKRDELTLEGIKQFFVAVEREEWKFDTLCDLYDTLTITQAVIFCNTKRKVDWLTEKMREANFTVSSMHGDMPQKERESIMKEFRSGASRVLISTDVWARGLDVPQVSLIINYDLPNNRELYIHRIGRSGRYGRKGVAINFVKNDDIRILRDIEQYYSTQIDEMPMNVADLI
UniProt P34913, whole entry, looked up: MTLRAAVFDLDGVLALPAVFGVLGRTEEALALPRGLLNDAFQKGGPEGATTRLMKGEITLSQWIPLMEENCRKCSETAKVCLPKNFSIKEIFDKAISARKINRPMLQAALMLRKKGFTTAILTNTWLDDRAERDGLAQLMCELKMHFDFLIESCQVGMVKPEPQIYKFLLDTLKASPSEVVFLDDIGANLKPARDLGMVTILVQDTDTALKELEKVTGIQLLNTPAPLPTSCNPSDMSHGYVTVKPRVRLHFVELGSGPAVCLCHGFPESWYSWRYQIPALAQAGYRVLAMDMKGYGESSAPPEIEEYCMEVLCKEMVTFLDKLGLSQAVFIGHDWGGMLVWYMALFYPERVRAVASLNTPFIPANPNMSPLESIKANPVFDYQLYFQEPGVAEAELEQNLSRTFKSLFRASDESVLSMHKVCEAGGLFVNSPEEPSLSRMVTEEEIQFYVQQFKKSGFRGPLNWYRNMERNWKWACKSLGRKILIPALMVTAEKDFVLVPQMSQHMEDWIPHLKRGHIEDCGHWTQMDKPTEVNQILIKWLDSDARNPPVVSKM

Some of the results follow.

Compound in one assay: CN1CCC(CNc2ccc3ncc(-c4cccc(OC(F)(F)F)c4)n3n2)CC1
Briefly: log2 fold change, soluble protein after heating vs DMSO (PISA); higher = thermal stabilisation; K562 lysate, 10 uM; active = over 0.2 and 3.5 SD of the protein, either way, in both replicates (recomputed). The procedure, abridged:
(§1)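 Following dounce homogenisation of K562 pellets in PBS pH 7.4 with 1 mM MgCl2, crude extract at 1 mg/mL protein was incubated for 30 min with 10 μM compound. Aliquots were then heated for 3 min over 48°C-58°C and pooled, NP-40 was added to 0.5% at 4°C, and soluble protein was recovered as the supernatant at 21,000xg for 90 min. Channel-sum-equalised TMTpro 16plex LC-MS/MS quantified this protein. Each value, from duplicates, is a log-two fold change in thermal stability relative to solvent controls.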
Consider EPB41L1 (UniProt Q9H4G0), for which the log2 fold change was inactive: 0.045.
Still for that read-out and setting: the result for ELAC2 (UniProt Q9BQ52) reads inactive: 0.12; that for EIF4B (UniProt P23588), inactive: 0.045; that for EIF3F (UniProt O00303), inactive: -0.078.
Still for that read-out and setting: the result for EIF2D (UniProt P41214) reads inactive: -0.071.
Still for that read-out and setting: the result for EMC2 (UniProt Q15006) reads inactive: -0.036.
Regarding EP300 (UniProt Q09472), the log2 fold change was inactive: 0.058.
Still for that read-out and setting: the result for EIF5B (UniProt O60841) reads inactive: -0.015.
With ERCC2 (UniProt P18074), the log2 fold change was inactive: -0.067.
Still for that read-out and setting: the result for EMC10 (UniProt Q5UCC4) reads inactive: 0.18.
The same measure, in the same setting: the result for EML2 isoform 3 (UniProt O95834) reads inactive: -0.035; that for EMC8 (UniProt O43402), inactive: -0.022; that for EIF3D (UniProt O15371), inactive: 0.04.
Same read-out and setting: the result for ENGASE (UniProt Q8NFI3) reads inactive: 0.052.
EPS15L1 isoform 2 (UniProt Q9UBC2): the log2 fold change was inactive: -0.004.
Same read-out and setting: the result for EP400P1 isoform 6 (UniProt Q6ZTU2) reads inactive: 0.107; that for ENTPD5 (UniProt O75356), inactive: 0.064.
As to ELP6 (UniProt Q0PNE2), the log2 fold change was inactive: 0.049.
Still for that read-out and setting: the result for EIF2B5 (UniProt Q13144) reads inactive: -0.057.
Consider EIF3G (UniProt O75821), for which the log2 fold change was inactive: -0.058.
Consider ELOC (UniProt Q15369), for which the log2 fold change is inactive: -0.057.
On the same count and under the same terms, the result for EML3 (UniProt Q32P44) reads inactive: -0.005; that for ELOA (UniProt Q14241), inactive: 0.059.
Same read-out and setting: the result for EIF2AK4 (UniProt Q9P2K8) reads inactive: 0.034; that for EMC3 (UniProt Q9P0I2), inactive: -0.017; that for EMP3 (UniProt P54852), active: 0.365.
Regarding EMC4 (UniProt Q5J8M3), the log2 fold change is inactive: -0.048.
The same measure, in the same setting: the result for EPB41L3 (UniProt Q9Y2J2) reads inactive: 0.006; that for EIF4EBP2 (UniProt Q13542), inactive: -0.16; that for ERCC6L (UniProt Q2NKX8), inactive: -0.076.
For the target EIF4E isoform 2 (UniProt P06730), the log2 fold change is inactive: 0.032.
On the same count and under the same terms, the result for EMC6 (UniProt Q9BV81) reads inactive: 0.008; that for EIF4A3 (UniProt P38919), inactive: 0.049; that for EIF3E (UniProt P60228), inactive: 0.024.
In the case of EPHX2 (UniProt P34913), the log2 fold change is inactive: 0.119.

Compound in another assay: CN1CCN(CCOc2cc(OC3CCOCC3)c3c(Nc4c(Cl)ccc5c4OCO5)ncnc3c2)CC1 [saracatinib]
The assay is described as above. The procedure, abridged:
as §1
EPB41L1 (UniProt Q9H4G0): the log2 fold change is inactive: 0.067.
The same measure, in the same setting: the result for ELAC2 (UniProt Q9BQ52) reads inactive: -0.034; that for EIF4B (UniProt P23588), inactive: 0.001.
Still for that read-out and setting: the result for EIF3F (UniProt O00303) reads inactive: 0; that for EIF2D (UniProt P41214), inactive: -0.002; that for EMC2 (UniProt Q15006), inactive: 0.029.
As for EP300 (UniProt Q09472), the log2 fold change was inactive: 0.027.
The same measure, in the same setting: the result for EIF5B (UniProt O60841) reads inactive: 0.008; that for ERCC2 (UniProt P18074), inactive: 0; that for EMC10 (UniProt Q5UCC4), inactive: 0.004.
The same measure, in the same setting: the result for EML2 isoform 3 (UniProt O95834) reads inactive: -0.015.
The same measure, in the same setting: the result for EMC8 (UniProt O43402) reads inactive: 0.009.
On to EIF3D (UniProt O15371), for which the log2 fold change is inactive: 0.026.
The same measure, in the same setting: the result for ENGASE (UniProt Q8NFI3) reads inactive: -0.019.
On the same count and under the same terms, the result for EPS15L1 isoform 2 (UniProt Q9UBC2) reads inactive: -0.016.
Still for that read-out and setting: the result for EP400P1 isoform 6 (UniProt Q6ZTU2) reads inactive: 0.082.
Take ENTPD5 (UniProt O75356): the log2 fold change was inactive: -0.041.
Same read-out and setting: the result for ELP6 (UniProt Q0PNE2) reads inactive: 0.016.
Still for that read-out and setting: the result for EIF2B5 (UniProt Q13144) reads inactive: 0.009.
The same measure, in the same setting: the result for EIF3G (UniProt O75821) reads inactive: 0.009; that for ELOC (UniProt Q15369), inactive: 0.024.
EML3 (UniProt Q32P44): the log2 fold change was inactive: -0.009.
On the same count and under the same terms, the result for ELOA (UniProt Q14241) reads inactive: 0.009; that for EIF2AK4 (UniProt Q9P2K8), inactive: 0.019; that for EMC3 (UniProt Q9P0I2), inactive: 0.006.
Same read-out and setting: the result for EMP3 (UniProt P54852) reads inactive: 0.049; that for EMC4 (UniProt Q5J8M3), inactive: 0.123.
Still for that read-out and setting: the result for EPB41L3 (UniProt Q9Y2J2) reads inactive: 0.009; that for EIF4EBP2 (UniProt Q13542), inactive: 0.027.
Regarding ERCC6L (UniProt Q2NKX8), the log2 fold change is inactive: 0.002.
In the case of EIF4E isoform 2 (UniProt P06730), the log2 fold change is inactive: -0.023.
The same measure, in the same setting: the result for EMC6 (UniProt Q9BV81) reads inactive: -0.029; that for EIF4A3 (UniProt P38919), inactive: -0.008; that for EIF3E (UniProt P60228), inactive: 0.034.
On to EPHX2 (UniProt P34913), for which the log2 fold change is inactive: -0.018.
